Data: PMC12145424, “Structural insights into tRNA recognition of the human FTSJ1-THADA complex” (Communications Biology, 2025)
No constants are given. Whether binding was seen depends on the method and setting. Binding seen in cells or lysates may run through a third protein. Some entries that bind do so weakly or less than the wild type.

Amino acid sequences for entries named in this document (tags omitted). A change or cut given only in a name is not applied to a line headed by its entry. Chains listed by the source or under a name are the forms on record and can include a tag or linker.
UniProt Q6YHU6: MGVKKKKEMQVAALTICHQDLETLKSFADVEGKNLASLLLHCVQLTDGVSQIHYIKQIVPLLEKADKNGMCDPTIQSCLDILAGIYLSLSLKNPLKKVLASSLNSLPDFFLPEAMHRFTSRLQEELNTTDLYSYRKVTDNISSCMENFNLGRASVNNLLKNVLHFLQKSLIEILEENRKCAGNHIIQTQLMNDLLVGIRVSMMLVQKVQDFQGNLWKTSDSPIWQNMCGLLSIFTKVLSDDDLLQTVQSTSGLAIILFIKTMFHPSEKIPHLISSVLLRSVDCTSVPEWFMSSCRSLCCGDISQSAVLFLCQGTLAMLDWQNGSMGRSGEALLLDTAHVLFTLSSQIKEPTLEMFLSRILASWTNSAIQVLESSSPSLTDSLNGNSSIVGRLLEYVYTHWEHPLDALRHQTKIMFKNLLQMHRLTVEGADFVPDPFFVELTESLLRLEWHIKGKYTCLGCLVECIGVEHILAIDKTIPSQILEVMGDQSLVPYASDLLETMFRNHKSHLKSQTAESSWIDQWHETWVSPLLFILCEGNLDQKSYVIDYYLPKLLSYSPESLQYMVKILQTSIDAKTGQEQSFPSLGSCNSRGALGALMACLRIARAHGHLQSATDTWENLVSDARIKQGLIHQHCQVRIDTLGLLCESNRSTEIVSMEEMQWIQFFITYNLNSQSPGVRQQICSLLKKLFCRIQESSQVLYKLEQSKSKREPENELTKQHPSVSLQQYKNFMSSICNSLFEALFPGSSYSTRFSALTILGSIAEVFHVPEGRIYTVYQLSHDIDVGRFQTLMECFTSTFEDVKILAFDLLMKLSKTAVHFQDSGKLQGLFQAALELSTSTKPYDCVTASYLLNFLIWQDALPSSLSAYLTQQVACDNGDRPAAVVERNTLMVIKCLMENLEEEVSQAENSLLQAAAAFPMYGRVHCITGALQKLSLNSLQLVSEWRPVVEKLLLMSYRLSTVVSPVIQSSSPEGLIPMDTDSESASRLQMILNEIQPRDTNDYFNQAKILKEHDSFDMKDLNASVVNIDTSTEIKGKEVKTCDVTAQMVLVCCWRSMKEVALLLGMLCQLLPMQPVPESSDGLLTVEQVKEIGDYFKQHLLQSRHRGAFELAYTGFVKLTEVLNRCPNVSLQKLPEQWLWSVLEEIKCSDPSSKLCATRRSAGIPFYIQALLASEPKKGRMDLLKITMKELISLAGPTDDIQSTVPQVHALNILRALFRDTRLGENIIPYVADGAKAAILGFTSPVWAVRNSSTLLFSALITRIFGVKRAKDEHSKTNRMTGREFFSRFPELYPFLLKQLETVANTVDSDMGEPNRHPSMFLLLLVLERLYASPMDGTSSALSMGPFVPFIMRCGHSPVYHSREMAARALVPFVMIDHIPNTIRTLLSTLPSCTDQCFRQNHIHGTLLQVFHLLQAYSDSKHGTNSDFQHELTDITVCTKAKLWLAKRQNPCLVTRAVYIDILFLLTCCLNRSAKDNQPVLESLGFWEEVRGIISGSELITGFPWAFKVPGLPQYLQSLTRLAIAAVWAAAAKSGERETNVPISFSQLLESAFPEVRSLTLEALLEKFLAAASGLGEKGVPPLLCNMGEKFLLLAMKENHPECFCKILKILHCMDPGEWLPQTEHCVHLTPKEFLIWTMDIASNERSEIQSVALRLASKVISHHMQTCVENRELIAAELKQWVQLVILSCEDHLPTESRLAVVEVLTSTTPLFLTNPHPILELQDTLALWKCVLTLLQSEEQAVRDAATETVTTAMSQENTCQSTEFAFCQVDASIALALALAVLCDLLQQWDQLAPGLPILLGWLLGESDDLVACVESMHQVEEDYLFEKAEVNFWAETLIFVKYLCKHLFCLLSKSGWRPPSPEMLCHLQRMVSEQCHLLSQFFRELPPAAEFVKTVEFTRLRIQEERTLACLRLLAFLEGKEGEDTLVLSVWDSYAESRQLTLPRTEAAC
FLAG-tagged THADA Glu1225Ala mutant (Q6YHU6, form named): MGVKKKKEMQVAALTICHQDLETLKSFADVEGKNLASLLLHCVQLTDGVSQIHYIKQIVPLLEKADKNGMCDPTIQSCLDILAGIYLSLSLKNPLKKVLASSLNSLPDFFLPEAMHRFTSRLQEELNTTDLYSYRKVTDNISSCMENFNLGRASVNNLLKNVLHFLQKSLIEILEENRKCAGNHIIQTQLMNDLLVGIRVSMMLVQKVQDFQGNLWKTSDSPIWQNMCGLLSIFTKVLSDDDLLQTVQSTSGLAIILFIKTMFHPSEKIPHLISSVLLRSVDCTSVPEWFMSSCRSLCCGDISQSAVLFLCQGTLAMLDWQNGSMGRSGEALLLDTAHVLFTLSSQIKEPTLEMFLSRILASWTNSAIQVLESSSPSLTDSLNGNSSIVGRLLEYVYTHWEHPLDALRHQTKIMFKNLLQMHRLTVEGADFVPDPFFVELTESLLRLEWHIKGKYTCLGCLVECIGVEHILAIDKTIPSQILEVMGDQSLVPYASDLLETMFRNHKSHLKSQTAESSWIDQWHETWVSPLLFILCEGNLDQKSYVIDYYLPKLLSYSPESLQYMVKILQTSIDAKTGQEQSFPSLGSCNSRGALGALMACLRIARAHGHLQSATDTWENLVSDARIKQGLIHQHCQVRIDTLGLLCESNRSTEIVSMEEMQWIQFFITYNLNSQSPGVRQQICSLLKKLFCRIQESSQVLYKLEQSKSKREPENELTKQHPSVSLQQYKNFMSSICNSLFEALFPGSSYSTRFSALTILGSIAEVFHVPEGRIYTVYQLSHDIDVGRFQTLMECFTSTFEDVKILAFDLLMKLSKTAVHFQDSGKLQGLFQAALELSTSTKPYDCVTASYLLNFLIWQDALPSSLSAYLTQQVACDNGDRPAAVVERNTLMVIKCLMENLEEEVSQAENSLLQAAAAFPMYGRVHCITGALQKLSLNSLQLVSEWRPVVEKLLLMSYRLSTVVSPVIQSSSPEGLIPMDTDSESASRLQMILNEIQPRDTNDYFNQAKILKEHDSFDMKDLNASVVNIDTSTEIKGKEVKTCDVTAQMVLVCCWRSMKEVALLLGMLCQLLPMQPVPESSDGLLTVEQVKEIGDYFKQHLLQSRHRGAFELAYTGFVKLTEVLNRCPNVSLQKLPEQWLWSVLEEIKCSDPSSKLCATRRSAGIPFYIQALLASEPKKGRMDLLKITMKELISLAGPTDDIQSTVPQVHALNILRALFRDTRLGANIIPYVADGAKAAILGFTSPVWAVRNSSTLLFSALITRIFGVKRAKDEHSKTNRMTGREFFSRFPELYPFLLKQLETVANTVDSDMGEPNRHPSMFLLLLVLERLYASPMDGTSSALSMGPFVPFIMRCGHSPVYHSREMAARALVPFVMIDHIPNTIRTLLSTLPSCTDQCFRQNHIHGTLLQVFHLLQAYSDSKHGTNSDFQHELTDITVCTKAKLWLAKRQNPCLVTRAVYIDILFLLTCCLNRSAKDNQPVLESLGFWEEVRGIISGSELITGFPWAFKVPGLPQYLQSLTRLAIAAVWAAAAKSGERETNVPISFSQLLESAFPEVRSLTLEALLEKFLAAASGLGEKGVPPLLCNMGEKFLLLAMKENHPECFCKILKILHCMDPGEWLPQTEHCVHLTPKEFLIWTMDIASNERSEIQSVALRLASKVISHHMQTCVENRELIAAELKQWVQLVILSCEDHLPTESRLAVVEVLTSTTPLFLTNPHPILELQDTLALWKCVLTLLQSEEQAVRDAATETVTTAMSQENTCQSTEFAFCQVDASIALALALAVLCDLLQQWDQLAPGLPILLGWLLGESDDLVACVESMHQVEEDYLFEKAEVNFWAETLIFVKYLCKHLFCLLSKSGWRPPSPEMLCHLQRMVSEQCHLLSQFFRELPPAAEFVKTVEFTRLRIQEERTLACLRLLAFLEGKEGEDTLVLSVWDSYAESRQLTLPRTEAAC

Columns and labels:
[1] = target: FLAG-tagged THADA Glu1225Ala mutant (human) (UniProt Q6YHU6); experiment: co-IP; 293FT cells transfected with FLAG-tagged THADA; lysate in 20 mM Tris-HCl pH 7.4, 150 mM NaCl, 1 mM EDTA, 1 mM EGTA, 0.01% Triton X-100; anti-FLAG M2 affinity gel; blot with anti-FLAG and anti-FTSJ1
[2] = target: FLAG-tagged THADA, wild type (293FT, immunoprecipitation) (human) (UniProt Q6YHU6); experiment: as above

B1: Human FTSJ1 (FLAG-tagged, co-expressed with THADA) (enzyme)
chain: MGRTSKDKRDVYYRLAKENGWRARSAFKLLQLDKEFQLFQGVTRAVDLCAAPGSWSQVLSQKIGGQGSGHVVAVDLQAMAPLPGVVQIQGDITQLSTAKEIIQHFKGCPADLVVCDGAPDVTGLHDVDEYMQAQLLLAALNIATHVLKPGGCFVAKIFRGRDVTLLYSQLQVFFSSVLCAKPRSSRNSSIEAFAVCQGYDPPEGFIPDLSKPLLDHSYDPDFNQLDGPTRIIVPFVTCGDLSSYDSDRSYPLDLEGGSEYKYTPPTQPPISPPYQEACTLKRKGQLAKEIRPQDCPISRVDTFPQPLAAPQCHTLLAPEMEDNEMSCSP
notes: FTSJ1, human; gene PCR-amplified and cloned into a modified pcDNA3.4 vector; no TEV cleavage step is described in the purification; also called Trm7 (yeast name); not shown: FLAG, N-terminal, kept
[1]
  binding: binds
[2]
  binding: binds
